The chains are these.
B1: 14-3-3 eta (protein, UniProt Q04917 1-246)
chain: MGDREQLLQRARLAEQAERYDDMASAMKAVTELNEPLSNEDRNLLSVAYKNVVGARRSSWRVISSIEQKTMADGNEKKLEKVKAYREKIEKELETVCNDVLSLLDKFLIKNCNDFQYESKVFYLKMKGDYYRYLAEVASGEKKNSVVEASEAAYKEAFEISKEQMQPTHPIRLGLALNFSVFYYEIQNAPEQACLLAKQAFDDAIAELDTLNEDSYKDSTLIMQLLRDNLTLWTSDQQDEEAGEGN
B2: Serpin H1 (protein, UniProt P50454 19-418)
chain: AEVKKPAAAAAPGTAEKLSPKAATLAERSAGLAFSLYQAMAKDQAVENILVSPVVVASSLGLVSLGGKATTASQAKAVLSAEQLRDEEVHAGLGELLRSLSNSTARNVTWKLGSRLYGPSSVSFADDFVRSSKQHYNCEHSKINFRDKRSALQSINEWAAQTTDGKLPEVTKDVERTDGALLVNAMFFKPHWDEKFHHKMVDNRGFMVTRSYTVGVMMMHRTGLYNYYDDEKEKLQIVEMPLAHKLSSLIILMPHHVEPLERLEKLLTKEQLKIWMGKMQKKAVAISLPKGVVEVTHDLQKHLAGLGLTEAIDKNKADLSRMSGKKDLYLASVFHATAFELDTDGNPFDQDIYGREELRSPKLFYADHPFIFLVRDTQSGSLLFIGRLVRPKGDKMRDEL

Protein sequences, listed by entry. Tags and fused reporters are not part of them. Residues count along the entry.
UniProt Q86XT4: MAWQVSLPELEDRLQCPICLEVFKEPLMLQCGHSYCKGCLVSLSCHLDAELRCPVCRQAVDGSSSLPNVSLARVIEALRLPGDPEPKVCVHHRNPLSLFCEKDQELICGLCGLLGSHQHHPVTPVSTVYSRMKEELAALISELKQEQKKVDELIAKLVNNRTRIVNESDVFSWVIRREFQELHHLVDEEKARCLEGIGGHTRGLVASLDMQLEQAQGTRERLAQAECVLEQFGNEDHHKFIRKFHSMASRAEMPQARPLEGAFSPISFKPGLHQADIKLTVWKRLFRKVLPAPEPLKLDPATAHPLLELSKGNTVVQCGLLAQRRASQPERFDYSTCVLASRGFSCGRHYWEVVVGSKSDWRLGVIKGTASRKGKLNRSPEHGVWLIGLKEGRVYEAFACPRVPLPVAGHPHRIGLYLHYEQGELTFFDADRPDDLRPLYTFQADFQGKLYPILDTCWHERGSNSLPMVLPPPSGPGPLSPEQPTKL
UniProt P14625, residues 22-803: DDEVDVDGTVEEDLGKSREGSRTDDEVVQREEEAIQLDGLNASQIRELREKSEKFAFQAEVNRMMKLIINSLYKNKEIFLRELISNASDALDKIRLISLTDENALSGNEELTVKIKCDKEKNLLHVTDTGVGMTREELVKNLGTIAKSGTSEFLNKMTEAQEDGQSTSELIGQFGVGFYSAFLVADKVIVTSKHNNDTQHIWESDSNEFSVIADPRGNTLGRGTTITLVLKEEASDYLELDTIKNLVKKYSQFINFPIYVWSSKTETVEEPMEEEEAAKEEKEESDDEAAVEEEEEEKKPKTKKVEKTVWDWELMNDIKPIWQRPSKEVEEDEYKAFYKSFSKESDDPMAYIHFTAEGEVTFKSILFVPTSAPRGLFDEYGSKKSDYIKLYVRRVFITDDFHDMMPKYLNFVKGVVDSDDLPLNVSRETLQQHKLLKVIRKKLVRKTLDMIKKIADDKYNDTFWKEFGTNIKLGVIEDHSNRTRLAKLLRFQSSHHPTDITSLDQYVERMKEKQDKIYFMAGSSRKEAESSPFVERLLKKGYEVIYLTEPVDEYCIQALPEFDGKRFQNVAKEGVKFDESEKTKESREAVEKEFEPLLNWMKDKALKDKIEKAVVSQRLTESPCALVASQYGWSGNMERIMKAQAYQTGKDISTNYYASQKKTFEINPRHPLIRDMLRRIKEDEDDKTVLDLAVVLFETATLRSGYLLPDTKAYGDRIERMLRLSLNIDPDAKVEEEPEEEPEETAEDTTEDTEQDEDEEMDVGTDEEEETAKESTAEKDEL
UniProt P23284, residues 34-216: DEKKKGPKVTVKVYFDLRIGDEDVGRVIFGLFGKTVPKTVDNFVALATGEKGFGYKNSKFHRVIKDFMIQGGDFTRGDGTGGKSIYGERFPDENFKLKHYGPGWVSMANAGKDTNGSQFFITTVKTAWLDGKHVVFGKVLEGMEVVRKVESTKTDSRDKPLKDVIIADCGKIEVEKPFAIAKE
UniProt P63104: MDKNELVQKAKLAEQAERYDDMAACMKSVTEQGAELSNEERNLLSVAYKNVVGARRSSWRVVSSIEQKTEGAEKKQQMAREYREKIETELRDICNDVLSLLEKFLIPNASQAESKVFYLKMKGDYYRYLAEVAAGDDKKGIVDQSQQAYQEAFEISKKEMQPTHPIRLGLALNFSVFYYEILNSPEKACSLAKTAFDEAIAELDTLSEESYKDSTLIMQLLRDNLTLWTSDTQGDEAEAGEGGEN

These are yes or no findings as the source states them, for the method shown. Binding seen in cells or lysates may run through a third protein. A yes stands for co-enrichment or nearness to the bait. Other partners may have been found.

In the experiment the target is FLAG-tagged TRIM50 (UniProt Q86XT4). The experiment in a line: affinity purification with mass spectrometry; FLAG-TRIM50#3 and FLAG#3 lysates (PBS, 0.5% NP-40) on M2 anti-FLAG agarose, washed with lysis buffer with 150 mM NaCl, eluted with FLAG peptide, SDS-PAGE bands, nanoLC-MS/MS.
Turning to HSP90B1 (from UniProt P14625 22-803), the binding entry was “binds”.
The result for PPIB (from UniProt P23284 34-216) reads “binds”; that for “p62 (Sequestosome 1/p62) (from UniProt Q13501 1-440)”, “binds”; that for 14-3-3 zeta (from UniProt P63104 1-245), “binds”.
The result for B1 reads “binds”.
In the case of B2 it was “binds”.
